This note sets out measurements from article PMC11793186.

Amino acid sequences for entries named in this document (tags omitted).
UniProt P63168: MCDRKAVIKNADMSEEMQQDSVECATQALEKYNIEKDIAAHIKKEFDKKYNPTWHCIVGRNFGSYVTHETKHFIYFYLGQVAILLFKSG
UniProt Q0GNC1: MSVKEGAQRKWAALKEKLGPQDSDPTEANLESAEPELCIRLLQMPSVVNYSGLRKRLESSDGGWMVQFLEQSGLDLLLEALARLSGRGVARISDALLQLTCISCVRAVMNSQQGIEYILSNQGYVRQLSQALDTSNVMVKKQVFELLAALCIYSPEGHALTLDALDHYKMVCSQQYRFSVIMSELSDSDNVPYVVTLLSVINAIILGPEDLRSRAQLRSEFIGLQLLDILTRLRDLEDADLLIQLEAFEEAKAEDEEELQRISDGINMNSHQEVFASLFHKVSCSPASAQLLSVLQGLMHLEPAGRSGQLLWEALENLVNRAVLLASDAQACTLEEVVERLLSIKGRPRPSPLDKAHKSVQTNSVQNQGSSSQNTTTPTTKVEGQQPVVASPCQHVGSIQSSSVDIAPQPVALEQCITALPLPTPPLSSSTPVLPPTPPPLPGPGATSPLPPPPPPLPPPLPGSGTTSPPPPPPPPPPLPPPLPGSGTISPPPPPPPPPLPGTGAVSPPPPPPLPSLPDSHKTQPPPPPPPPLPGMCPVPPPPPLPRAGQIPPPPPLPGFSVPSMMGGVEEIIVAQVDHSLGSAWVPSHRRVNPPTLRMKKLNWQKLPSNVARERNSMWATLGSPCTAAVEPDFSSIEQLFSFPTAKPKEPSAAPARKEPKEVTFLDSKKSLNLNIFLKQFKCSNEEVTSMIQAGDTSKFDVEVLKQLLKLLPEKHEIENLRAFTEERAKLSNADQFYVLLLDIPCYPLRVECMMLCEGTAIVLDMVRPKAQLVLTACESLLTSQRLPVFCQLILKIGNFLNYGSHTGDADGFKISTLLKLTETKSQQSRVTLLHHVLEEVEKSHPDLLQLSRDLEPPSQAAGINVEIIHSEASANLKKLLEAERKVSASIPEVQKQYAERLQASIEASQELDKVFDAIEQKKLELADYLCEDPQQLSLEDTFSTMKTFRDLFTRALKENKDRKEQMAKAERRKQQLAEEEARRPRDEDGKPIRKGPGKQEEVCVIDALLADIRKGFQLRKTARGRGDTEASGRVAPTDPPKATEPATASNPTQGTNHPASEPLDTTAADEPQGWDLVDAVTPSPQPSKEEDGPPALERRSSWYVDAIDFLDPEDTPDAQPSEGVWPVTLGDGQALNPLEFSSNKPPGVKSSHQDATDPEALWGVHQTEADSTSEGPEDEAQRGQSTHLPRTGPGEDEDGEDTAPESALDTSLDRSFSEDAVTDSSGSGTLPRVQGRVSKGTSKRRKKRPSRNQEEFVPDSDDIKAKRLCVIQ

Experiment [1] addresses dynein light chain 1 (Dynll1) (mouse (endogenous in glomeruli)) (UniProt P63168). Description: co-IP; glomerular lysates of wt/wt mice; precipitated with an anti-Dynll1 antibody, INF2 and PI31 detected by blot; quantified as fraction of the protein in the Dynll1 pulldown relative to the total in lysates.
The target is the same in experiment [2]. Described as above. The source holds these as a separate data set.
The target is the same in experiment [3]. Nature of the experiment: co-IP; glomerular lysates of INF2 R218Q KI mice (wt/ki and ki/ki), without or with puromycin aminonucleoside (PA) treatment of the mice; precipitated with an anti-Dynll1 antibody, INF2 and PI31 detected by blot; quantified as fraction of the protein in the Dynll1 pulldown relative to the total in lysates.

These are yes or no findings as the source states them, for the method shown. Binding seen in cells or lysates may run through a third protein. Some results given as binding are weak or reduced against the parent protein; the word gives no strength.

Take “inverted formin 2 (INF2), wild type (from UniProt Q0GNC1 1-1273)”: in experiment [1], the binding result is reported as “binds”.

B1: proteasomal inhibitor of 31kD (PI31) (protein, UniProt Q8BHL8 1-271)
chain: MAGLEVLFASAAPSMSCPQDALVCFLHWEVVTNGYYALGTGDQPGPSDKKSELLPAKWNSNKELYALRYESKDGARKLLLKAVSVENGMIINVLELGTQQVADLTLNLDDYIDAEDLSDFHRTYKNSEELRSQIRSGIITPIHEQWEKARANSPPREFPPATAREVDPLQISSHRPHTSRQPAWRDPLSPFAVGGDDLDPFGCQRGGMIVDPLRSGFPRVLIDPSSGLPNRLPPGAVPPGARFDPFGPIGTSPSGPNPDHLPPPGYDDMYL
Turning to B1, the binding result was “binds weakly” in experiment [2] and “binds” in experiment [3].
